Among the data in PubChem BioAssay AID617 (SRMLSC, 2007) are growth inhibition values, retold here.

Each structure is given as a SMILES string. Screen size: about 1,300 compounds; about 1,200 (92%) were called active. How the calls were made is not given here. The set was probably picked from earlier hits. The list shows a part of the results, in another mix than the full data. Entries with a potency or affinity are not part of this list.

The assay is described as follows: E. coli ΔtolC antibacterial growth inhibition – strain BW25113 ΔtolC::kan, dose response (AID 617). The settings on record: OD615, at 100 µM (top of the series). The method, boiled down:
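Material: E. coli BW25113 ΔtolC::kan bacteria; input: inoculum from 1:1000-diluted 1.5 h subculture; medium: kanamycin-containing LB broth, 50 µg/mL; dosing: compounds in serially diluted dose-response series; incubation: 20 h exposure at 37 °C; measured by: absorbance at 615 nm; control set: chloramphenicol control, 30 µM final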
In the case of `FC(F)(F)c1ccc2c(c1)nnn2C1CCN(Cc2nnnn2Cc2ccccc2)CC1`, the growth inhibition is inactive: 8.88%.
